The supplement of paper PMC6078165

Tested on: MDAMB436
Assay: relative JC-1 red fluorescence (viability) vs pre-drug, coculture with fibroblast (fraction); higher = more viable cancer cells
Procedure: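 JC-1 labelled TNBC cells cocultured 1:1 (1,500 cells each) with CellTrace Violet stained primary or stromal fibroblasts in 384-well plates in FluoroBrite medium, treated with one of 42 anticancer drugs at 0.1, 1, 10 or 100 uM. JC-1 red fluorescence (mitochondrial integrity in cancer cells only) was read by plate reader every 8 h for 72 h. Values are normalised to each well's pre-drug value. The stock of one drug was tenfold lower, so its dose labels may be too high.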

CC(=O)O[C@@]12CO[C@@H]1C[C@H](O)[C@@]1(C)C(=O)[C@H](O)C3=C(C)[C@@H](OC(=O)[C@H](O)[C@@H](NC(=O)OC(C)(C)C)c4ccccc4)C[C@@](O)([C@@H](OC(=O)c4ccccc4)[C@H]21)C3(C)C [Docetaxel]
relative JC-1 red fluorescence
Settings | 8 h | 16 h | 24 h | 32 h | 40 h | 48 h | 56 h | 64 h | 72 h
0.1 µM, coculture fibroblast: C12385 | 0.738 | 0.68 | 0.653 | 0.575 | 0.528 | 0.515 | 0.509 | 0.513 | 0.521
0.1 µM, coculture fibroblast: H6013 | 0.766 | 0.731 | 0.715 | 0.716 | 0.722 | 0.766 | 0.757 | 0.778 | 0.763
0.1 µM, coculture fibroblast: H6019 | 0.709 | 0.657 | 0.625 | 0.5519 | 0.516 | 0.51 | 0.496 | 0.485 | 0.484
0.1 µM, coculture fibroblast: H6076 | 0.766 | 0.7129 | 0.701 | 0.652 | 0.658 | 0.648 | 0.672 | 0.682 | 0.695
0.1 µM, coculture fibroblast: H6231 | 0.7459 | 0.655 | 0.675 | 0.59 | 0.586 | 0.559 | 0.553 | 0.542 | 0.527
0.1 µM, coculture fibroblast: HADF | 0.81 | 0.73 | 0.702 | 0.681 | 0.682 | 0.7077 | 0.668 | 0.67095 | 0.645
0.1 µM, coculture fibroblast: HCFa | 0.7316 | 0.686 | 0.66 | 0.633 | 0.616 | 0.643 | 0.595 | 0.59 | 0.548
0.1 µM, coculture fibroblast: HCPF | 0.755 | 0.6916 | 0.695 | 0.6462 | 0.657 | 0.6288 | 0.6328 | 0.62 | 0.6124
0.1 µM, coculture fibroblast: HHSteC | 0.7867 | 0.771 | 0.741 | 0.727 | 0.72 | 0.737 | 0.689 | 0.681 | 0.64
0.1 µM, coculture fibroblast: HMF | 0.7279 | 0.6707 | 0.648 | 0.606 | 0.6039 | 0.5674 | 0.5738 | 0.556 | 0.5489
0.1 µM, coculture fibroblast: HPFa | 0.875 | 0.788 | 0.753 | 0.701 | 0.688 | 0.6903 | 0.627 | 0.6202 | 0.579
0.1 µM, coculture fibroblast: HUF | 0.865 | 0.759 | 0.757 | 0.693 | 0.645 | 0.623 | 0.608 | 0.599 | 0.594
0.1 µM, coculture fibroblast: Hs5 | 0.745 | 0.6911 | 0.6855 | 0.634 | 0.643 | 0.6175 | 0.64 | 0.6214 | 0.6426
0.1 µM, coculture fibroblast: Hs27A | 0.8131 | 0.735 | 0.732 | 0.733 | 0.749 | 0.842 | 0.781 | 0.798 | 0.745
0.1 µM, coculture fibroblast: Hs343T | 0.709 | 0.652 | 0.616 | 0.578 | 0.569 | 0.538 | 0.537 | 0.525 | 0.52
0.1 µM, coculture fibroblast: WS1 | 0.742 | 0.698 | 0.673 | 0.588 | 0.552 | 0.529 | 0.516 | 0.503 | 0.508
1 µM, coculture fibroblast: C12385 | 0.81869 | 0.744 | 0.674 | 0.614 | 0.568 | 0.549 | 0.533 | 0.523 | 0.528
1 µM, coculture fibroblast: H6013 | 0.864 | 0.791 | 0.771 | 0.782 | 0.789 | 0.828 | 0.82 | 0.832 | 0.819
1 µM, coculture fibroblast: H6019 | 0.791 | 0.681 | 0.686 | 0.627 | 0.602 | 0.591 | 0.565 | 0.553 | 0.539
1 µM, coculture fibroblast: H6076 | 0.726 | 0.622 | 0.636 | 0.61 | 0.615 | 0.611 | 0.654 | 0.67 | 0.693
1 µM, coculture fibroblast: H6231 | 0.767 | 0.6781 | 0.645 | 0.572 | 0.549 | 0.525 | 0.525 | 0.505 | 0.495
1 µM, coculture fibroblast: HADF | 0.847 | 0.7566 | 0.73 | 0.712 | 0.707 | 0.724 | 0.683 | 0.6894 | 0.6675
1 µM, coculture fibroblast: HCFa | 0.847 | 0.735 | 0.721 | 0.684 | 0.65 | 0.663 | 0.616 | 0.606 | 0.556
1 µM, coculture fibroblast: HCPF | 0.779 | 0.701 | 0.659 | 0.622 | 0.6 | 0.571 | 0.557 | 0.543 | 0.526
1 µM, coculture fibroblast: HHSteC | 0.84 | 0.774 | 0.744 | 0.718 | 0.712 | 0.727 | 0.678 | 0.667 | 0.635
1 µM, coculture fibroblast: HMF | 0.7588 | 0.661 | 0.649 | 0.616 | 0.608 | 0.586 | 0.587 | 0.573 | 0.571
1 µM, coculture fibroblast: HPFa | 0.91 | 0.858 | 0.812 | 0.771 | 0.745 | 0.757 | 0.689 | 0.6752 | 0.639
1 µM, coculture fibroblast: HUF | 0.844 | 0.749 | 0.7134 | 0.6313 | 0.573 | 0.537 | 0.512 | 0.504 | 0.501
1 µM, coculture fibroblast: Hs5 | 0.77263 | 0.692 | 0.708 | 0.674 | 0.674 | 0.658 | 0.686 | 0.68 | 0.691
1 µM, coculture fibroblast: Hs27A | 0.873 | 0.825 | 0.758 | 0.75808 | 0.7565 | 0.822 | 0.768 | 0.789 | 0.728
1 µM, coculture fibroblast: Hs343T | 0.751 | 0.6323 | 0.588 | 0.549 | 0.525 | 0.492 | 0.4879 | 0.4833 | 0.476
1 µM, coculture fibroblast: WS1 | 0.8 | 0.693 | 0.671 | 0.595 | 0.556 | 0.533 | 0.515 | 0.503 | 0.507

The reference is the same well before dosing, and untreated signal decays as well.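 Fibroblast labels denote human fibroblasts, mainly primary ones from uterus (C12385, HUF), lung (H6013), bone (Hs27A), adrenal (HADF) and skin (WS1), plus mammary HMF and breast cancer-associated Hs343T. Cancer cells are basal-like or mesenchymal-like triple-negative breast cancer lines. A hit is a response shift exceeding 3x replicate standard deviation. The tissue of the other fibroblasts is not given here.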
